# From the supplement of paper PMC4604168 (melanoma cell lines)
# The list shows a part of the results. Repeats are few or missing, and single values can be far off.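 The apoptosis fraction was the count of cleaved-PARP antibody-stained nuclei relative to all DNA-stained nuclei, imaged in 1,536-well plates. Screening doses were set so most cells survived, and baseline and induced cleaved-PARP levels vary greatly across cell lines.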
# Key:
# Experiment in all cases: cleaved PARP positive nuclei fraction relative to DMSO control; melanoma cells; higher = more apoptosis
# Conditions in all cases: library dose: low library concentration; 72 h
# [1] = test system: 501Mel
# [2] = test system: A101D
# [3] = test system: A2058
# [4] = test system: C32
# [5] = test system: CBRC008 (line from a melanoma biopsy)
# [6] = test system: CBRC014 (line from a melanoma biopsy)
# [7] = test system: CBRC016 (line from a melanoma biopsy)
# [8] = test system: CBRC017 (line from a melanoma biopsy)
# [9] = test system: COLO792
# [10] = test system: COLO800
# [11] = test system: COLO829
# [12] = test system: G361
# [13] = test system: IPC-298
# [14] = test system: IST-MEL1
# [15] = test system: LB2518-MEL
# [16] = test system: LOXIMVI
# [17] = test system: A375
# [18] = test system: CBRC013 (line from a melanoma biopsy)
# [19] = test system: MEL-HO
compound,measurement,setting,value
"CN1CCN(c2ccc3nc(-c4c(N)c5c(F)cccc5[nH]c4=O)[nH]c3c2)CC1 [Dovitinib] + O=C(Nc1ccccc1)c1cc([N+](=O)[O-])ccc1Cl [GW9662] (first compound 0.1 µM, partner dose 2 µM)",cleaved PARP positive nuclei fraction,[1],89.7%
same,cleaved PARP positive nuclei fraction,[2],15.5%
same,cleaved PARP positive nuclei fraction,[3],227%
same,cleaved PARP positive nuclei fraction,[4],124%
same,cleaved PARP positive nuclei fraction,[5],41.6%
same,cleaved PARP positive nuclei fraction,[6],98.4%
same,cleaved PARP positive nuclei fraction,[7],35.6%
same,cleaved PARP positive nuclei fraction,[8],72.6%
same,cleaved PARP positive nuclei fraction,[9],12.8%
same,cleaved PARP positive nuclei fraction,[10],202%
same,cleaved PARP positive nuclei fraction,[11],276%
same,cleaved PARP positive nuclei fraction,[12],104%
same,cleaved PARP positive nuclei fraction,[13],93.1%
same,cleaved PARP positive nuclei fraction,[14],89.1%
same,cleaved PARP positive nuclei fraction,[15],57%
same,cleaved PARP positive nuclei fraction,[16],188%
"CO[C@H]1C[C@@H]2CC[C@@H](C)[C@@](O)(O2)C(=O)C(=O)N2CCCC[C@H]2C(=O)O[C@H]([C@H](C)C[C@@H]2CC[C@@H](OCCO)[C@H](OC)C2)CC(=O)[C@H](C)/C=C(\C)[C@@H](O)[C@@H](OC)C(=O)[C@H](C)C[C@H](C)/C=C/C=C/C=C/1C [everolimus] + COc1ccc(-c2ccc3c(N4CCOCC4)nc(N4C[C@@H](C)O[C@@H](C)C4)nc3n2)cc1CO [KU0063794] (first compound 0.02 µM, partner dose 0.02 µM)",cleaved PARP positive nuclei fraction,[1],249%
same,cleaved PARP positive nuclei fraction,[2],32.6%
same,cleaved PARP positive nuclei fraction,[3],93.8%
same,cleaved PARP positive nuclei fraction,[4],91.6%
same,cleaved PARP positive nuclei fraction,[5],499%
same,cleaved PARP positive nuclei fraction,[6],116%
same,cleaved PARP positive nuclei fraction,[7],63%
same,cleaved PARP positive nuclei fraction,[8],131%
same,cleaved PARP positive nuclei fraction,[9],124%
same,cleaved PARP positive nuclei fraction,[10],72.6%
same,cleaved PARP positive nuclei fraction,[11],88.1%
same,cleaved PARP positive nuclei fraction,[12],184%
same,cleaved PARP positive nuclei fraction,[13],120%
same,cleaved PARP positive nuclei fraction,[14],139%
same,cleaved PARP positive nuclei fraction,[15],85.1%
same,cleaved PARP positive nuclei fraction,[16],41%
"Cn1c(=O)n(-c2ccc(C(C)(C)C#N)cc2)c2c3cc(-c4cnc5ccccc5c4)ccc3ncc21 + COc1cc(N2CCC(N3CCN(C)CC3)CC2)ccc1Nc1ncc(Cl)c(Nc2ccccc2S(=O)(=O)C(C)C)n1 [NVP-TAE684] (first compound 0.004 µM, partner dose 0.08 µM)",cleaved PARP positive nuclei fraction,[1],89.4%
same,cleaved PARP positive nuclei fraction,[2],43.4%
same,cleaved PARP positive nuclei fraction,[3],181%
same,cleaved PARP positive nuclei fraction,[4],49.9%
same,cleaved PARP positive nuclei fraction,[5],66.8%
same,cleaved PARP positive nuclei fraction,[6],99.5%
same,cleaved PARP positive nuclei fraction,[7],57.7%
same,cleaved PARP positive nuclei fraction,[8],82.1%
same,cleaved PARP positive nuclei fraction,[9],151%
same,cleaved PARP positive nuclei fraction,[10],57.8%
same,cleaved PARP positive nuclei fraction,[11],184%
same,cleaved PARP positive nuclei fraction,[12],62.3%
same,cleaved PARP positive nuclei fraction,[13],50.2%
same,cleaved PARP positive nuclei fraction,[14],101%
same,cleaved PARP positive nuclei fraction,[15],63.9%
same,cleaved PARP positive nuclei fraction,[16],158%
"CS(=O)(=O)CCNCc1ccc(-c2ccc3ncnc(Nc4ccc(OCc5cccc(F)c5)c(Cl)c4)c3c2)o1 [lapatinib] + c1cc(-c2cnn3cc(-c4ccc(OCCN5CCCCC5)cc4)cnc23)ccn1 [Dorsomorphin] (first compound 0.8 µM, partner dose 0.4 µM)",cleaved PARP positive nuclei fraction,[1],81.9%
same,cleaved PARP positive nuclei fraction,[2],35.9%
same,cleaved PARP positive nuclei fraction,[3],277%
same,cleaved PARP positive nuclei fraction,[4],44.2%
same,cleaved PARP positive nuclei fraction,[5],90.5%
same,cleaved PARP positive nuclei fraction,[6],92.9%
same,cleaved PARP positive nuclei fraction,[7],79.8%
same,cleaved PARP positive nuclei fraction,[8],146%
same,cleaved PARP positive nuclei fraction,[9],71.3%
same,cleaved PARP positive nuclei fraction,[10],220%
same,cleaved PARP positive nuclei fraction,[11],52.1%
same,cleaved PARP positive nuclei fraction,[12],122%
same,cleaved PARP positive nuclei fraction,[13],141%
same,cleaved PARP positive nuclei fraction,[14],77.3%
same,cleaved PARP positive nuclei fraction,[15],71.2%
same,cleaved PARP positive nuclei fraction,[16],330%
"Cc1cc(Nc2cc(N3CCN(C)CC3)nc(/C=C/c3ccccc3)n2)n[nH]1 + COc1ccc(COc2ccc(Cc3cnc(N)nc3N)cc2OC)cc1 [GW2580] (first compound 0.04 µM, partner dose 1 µM)",cleaved PARP positive nuclei fraction,[1],107%
same,cleaved PARP positive nuclei fraction,[2],21%
same,cleaved PARP positive nuclei fraction,[3],83.1%
same,cleaved PARP positive nuclei fraction,[4],46%
same,cleaved PARP positive nuclei fraction,[5],35.9%
same,cleaved PARP positive nuclei fraction,[6],102%
same,cleaved PARP positive nuclei fraction,[7],116%
same,cleaved PARP positive nuclei fraction,[8],117%
same,cleaved PARP positive nuclei fraction,[9],113%
same,cleaved PARP positive nuclei fraction,[10],78.9%
same,cleaved PARP positive nuclei fraction,[11],23.6%
same,cleaved PARP positive nuclei fraction,[12],28.4%
same,cleaved PARP positive nuclei fraction,[13],47.3%
same,cleaved PARP positive nuclei fraction,[14],59.2%
same,cleaved PARP positive nuclei fraction,[15],80.8%
same,cleaved PARP positive nuclei fraction,[16],63.2%
"Cn1c(=O)n(-c2ccc(C(C)(C)C#N)cc2)c2c3cc(-c4cnc5ccccc5c4)ccc3ncc21 + CC(C)(C)c1cnc(CSc2cnc(NC(=O)C3CCNCC3)s2)o1 [SNS-032] (first compound 0.004 µM, partner dose 0.01 µM)",cleaved PARP positive nuclei fraction,[2],92.6%
same,cleaved PARP positive nuclei fraction,[3],230%
same,cleaved PARP positive nuclei fraction,[17],82.5%
same,cleaved PARP positive nuclei fraction,[4],98.2%
same,cleaved PARP positive nuclei fraction,[5],111%
same,cleaved PARP positive nuclei fraction,[18],92.9%
same,cleaved PARP positive nuclei fraction,[6],91.9%
same,cleaved PARP positive nuclei fraction,[7],64.9%
same,cleaved PARP positive nuclei fraction,[8],156%
same,cleaved PARP positive nuclei fraction,[9],159%
same,cleaved PARP positive nuclei fraction,[10],92%
same,cleaved PARP positive nuclei fraction,[11],150%
same,cleaved PARP positive nuclei fraction,[12],60.7%
same,cleaved PARP positive nuclei fraction,[13],44.3%
same,cleaved PARP positive nuclei fraction,[14],50.4%
same,cleaved PARP positive nuclei fraction,[16],126%
same,cleaved PARP positive nuclei fraction,[19],166%
"CCCS(=O)(=O)Nc1ccc(F)c(C(=O)c2c[nH]c3ncc(Cl)cc23)c1F + COc1cc2c(Oc3ccc4[nH]c(C)cc4c3F)ncnc2cc1OCCCN1CCCC1 [cediranib] (first compound 0.08 µM, partner dose 0.4 µM)",cleaved PARP positive nuclei fraction,[2],88.9%
same,cleaved PARP positive nuclei fraction,[3],124%
same,cleaved PARP positive nuclei fraction,[17],147%
same,cleaved PARP positive nuclei fraction,[4],103%
same,cleaved PARP positive nuclei fraction,[5],120%
same,cleaved PARP positive nuclei fraction,[18],102%
same,cleaved PARP positive nuclei fraction,[6],90.5%
same,cleaved PARP positive nuclei fraction,[7],85.1%
same,cleaved PARP positive nuclei fraction,[8],92.3%
same,cleaved PARP positive nuclei fraction,[9],71.3%
same,cleaved PARP positive nuclei fraction,[10],147%
same,cleaved PARP positive nuclei fraction,[11],130%
same,cleaved PARP positive nuclei fraction,[12],86.3%
same,cleaved PARP positive nuclei fraction,[13],109%
same,cleaved PARP positive nuclei fraction,[14],55.4%
same,cleaved PARP positive nuclei fraction,[16],201%
same,cleaved PARP positive nuclei fraction,[19],74.1%
"Cc1cc(Nc2cc(N3CCN(C)CC3)nc(/C=C/c3ccccc3)n2)n[nH]1 + CN(NC(=O)CC(=O)NN(C)C(=S)c1ccccc1)C(=S)c1ccccc1 [STA4783] (first compound 0.04 µM, partner dose 0.006 µM)",cleaved PARP positive nuclei fraction,[2],81.3%
same,cleaved PARP positive nuclei fraction,[3],85.6%
same,cleaved PARP positive nuclei fraction,[17],1320%
same,cleaved PARP positive nuclei fraction,[4],55.8%
same,cleaved PARP positive nuclei fraction,[5],2040%
same,cleaved PARP positive nuclei fraction,[18],141%
same,cleaved PARP positive nuclei fraction,[6],866%
same,cleaved PARP positive nuclei fraction,[7],189%
same,cleaved PARP positive nuclei fraction,[8],391%
same,cleaved PARP positive nuclei fraction,[9],90.8%
same,cleaved PARP positive nuclei fraction,[10],150%
same,cleaved PARP positive nuclei fraction,[11],247%
same,cleaved PARP positive nuclei fraction,[12],89.5%
same,cleaved PARP positive nuclei fraction,[13],96.9%
same,cleaved PARP positive nuclei fraction,[14],73.3%
same,cleaved PARP positive nuclei fraction,[16],51.8%
same,cleaved PARP positive nuclei fraction,[19],74.8%
"O=C(O)c1ccc2c(c1)nc(Nc1cccc(Cl)c1)c1ccncc12 + Oc1nc(-c2ccc(C(F)(F)F)cc2)nc2c1CSCC2 [XAV939] (first compound 0.4 µM, partner dose 2 µM)",cleaved PARP positive nuclei fraction,[1],136%
same,cleaved PARP positive nuclei fraction,[2],32.3%
same,cleaved PARP positive nuclei fraction,[3],158%
same,cleaved PARP positive nuclei fraction,[4],50.4%
same,cleaved PARP positive nuclei fraction,[5],34.5%
same,cleaved PARP positive nuclei fraction,[6],97.9%
same,cleaved PARP positive nuclei fraction,[7],98.2%
same,cleaved PARP positive nuclei fraction,[8],118%
same,cleaved PARP positive nuclei fraction,[9],50.2%
same,cleaved PARP positive nuclei fraction,[10],24.7%
same,cleaved PARP positive nuclei fraction,[11],165%
same,cleaved PARP positive nuclei fraction,[12],80.6%
same,cleaved PARP positive nuclei fraction,[13],31.5%
same,cleaved PARP positive nuclei fraction,[14],116%
same,cleaved PARP positive nuclei fraction,[15],66.5%
same,cleaved PARP positive nuclei fraction,[16],110%
"C=C(c1ccc(C(=O)O)cc1)c1cc2c(cc1C)C(C)(C)CCC2(C)C [Bexarotene] + C[C@@H]1CCN(C(=O)CC#N)C[C@@H]1N(C)c1ncnc2[nH]ccc12 [CP690550] (first compound 2 µM, partner dose 1 µM)",cleaved PARP positive nuclei fraction,[2],88.6%
same,cleaved PARP positive nuclei fraction,[3],111%
same,cleaved PARP positive nuclei fraction,[17],185%
same,cleaved PARP positive nuclei fraction,[4],88.5%
same,cleaved PARP positive nuclei fraction,[5],289%
same,cleaved PARP positive nuclei fraction,[18],136%
same,cleaved PARP positive nuclei fraction,[6],106%
same,cleaved PARP positive nuclei fraction,[7],370%
same,cleaved PARP positive nuclei fraction,[8],147%
same,cleaved PARP positive nuclei fraction,[9],83.9%
same,cleaved PARP positive nuclei fraction,[10],110%
same,cleaved PARP positive nuclei fraction,[11],71%
same,cleaved PARP positive nuclei fraction,[12],67.7%
same,cleaved PARP positive nuclei fraction,[13],92.8%
same,cleaved PARP positive nuclei fraction,[14],99.8%
same,cleaved PARP positive nuclei fraction,[16],43.9%
same,cleaved PARP positive nuclei fraction,[19],34.2%
"CO[C@H]1C[C@@H]2CC[C@@H](C)[C@@](O)(O2)C(=O)C(=O)N2CCCC[C@H]2C(=O)O[C@H]([C@H](C)C[C@@H]2CC[C@@H](OCCO)[C@H](OC)C2)CC(=O)[C@H](C)/C=C(\C)[C@@H](O)[C@@H](OC)C(=O)[C@H](C)C[C@H](C)/C=C/C=C/C=C/1C [everolimus] + CN(C)S(=O)(=O)c1ccc2c(c1)/C(=C/c1cc3c([nH]1)CCCC3)C(=O)N2 [SU6656] (first compound 0.02 µM, partner dose 0.4 µM)",cleaved PARP positive nuclei fraction,[2],102%
same,cleaved PARP positive nuclei fraction,[3],198%
same,cleaved PARP positive nuclei fraction,[17],167%
same,cleaved PARP positive nuclei fraction,[4],106%
same,cleaved PARP positive nuclei fraction,[5],197%
same,cleaved PARP positive nuclei fraction,[18],60.1%
same,cleaved PARP positive nuclei fraction,[6],98.3%
same,cleaved PARP positive nuclei fraction,[7],31.4%
same,cleaved PARP positive nuclei fraction,[8],76.3%
same,cleaved PARP positive nuclei fraction,[9],94%
same,cleaved PARP positive nuclei fraction,[10],61.5%
same,cleaved PARP positive nuclei fraction,[11],193%
same,cleaved PARP positive nuclei fraction,[12],99.7%
same,cleaved PARP positive nuclei fraction,[13],60.3%
same,cleaved PARP positive nuclei fraction,[14],124%
same,cleaved PARP positive nuclei fraction,[16],321%
same,cleaved PARP positive nuclei fraction,[19],532%

# Part of the list above in a different format:
compound | measurement | setting | value
CO[C@H]1C[C@@H]2CC[C@@H](C)[C@@](O)(O2)C(=O)C(=O)N2CCCC[C@H]2C(=O)O[C@H]([C@H](C)C[C@@H]2CC[C@@H](OCCO)[C@H](OC)C2)CC(=O)[C@H](C)/C=C(\C)[C@@H](O)[C@@H](OC)C(=O)[C@H](C)C[C@H](C)/C=C/C=C/C=C/1C [everolimus] + COc1ccc(-c2ccc3c(N4CCOCC4)nc(N4C[C@@H](C)O[C@@H](C)C4)nc3n2)cc1CO [KU0063794] (first compound 0.02 µM, partner dose 0.02 µM) | cleaved PARP positive nuclei fraction | [16] | 41%
CCCS(=O)(=O)Nc1ccc(F)c(C(=O)c2c[nH]c3ncc(Cl)cc23)c1F + COc1cc2c(Oc3ccc4[nH]c(C)cc4c3F)ncnc2cc1OCCCN1CCCC1 [cediranib] (first compound 0.08 µM, partner dose 0.4 µM) | cleaved PARP positive nuclei fraction | [2] | 88.9%
